From patent publication US20130244232A1 (priority 2012, published 2013)

Key:
[1] = general procedure: Fmoc solid-phase peptide synthesis; Sieber Amide resin (substitution level 0.52 mmol/g); PyBop/HOBt/DIEA and HATU/DIEA (solution couplings to porphyrin); conditions: conjugation step

“3,7,12,17-tetramethyl-porphyrin-2 (18)-N9epsilon-(Ace-Asp1-Glu2-Gln3-Gln4-Leu5-His6-Ser7-Gln8-Lys9-Arg10-Lys11-Ile12-Thr13-Leu14-NH2)-18(2)-N9epsilon-(Ace-Asp1-Glu2-Gln3-Gln4-Leu5-Gly6-Ser7-Gln8-Lys9-Arg10-NH2)-di-propionamide” gave a conjugation yield [1] of 28% yield.
For “3,7,12,17-tetramethyl-porphyrin-2(18)-N9epsilon-(Ace-Asp1-Glu2-Gln3-Gln4-Leu5-His6-Ser7-Gln8-Lys9-Arg10-Lys11-Ile12-Thr13-Leu14-NH2)-18(2)-N9epsilon-(Ace-Asp1-Glu2-Gln3-Gln4-Leu5-Ser6-Ser7-Gln8-Lys9-Arg10-NH2)-di-propionammide”, the “final HPLC purity” value ([1]; analytical RP-HPLC) was greater than 99%, the conjugation yield ([1]; run 1) was “yield 42%” and the conjugation yield ([1]; run 2) was 48% yield.
In the case of “3,7,12,17-tetramethyl-porphyrin-2(18)-N9epsilon-(Ace-Asp1-Glu2-Gln3-Gln4-Leu5-His6-Ser7-Gln8-Lys9-Arg10-Lys11-Ile12-Thr13-Leu14-NH2)-18(2)-N9epsilon-(Ace-Asp1-Glu2-Gln3-Gln4-Leu5-Ser6-Ser7-Gln8-Lys9-Leu10-NH2)-di-propionamide”, the conjugation yield [1] is reported as 28% yield.
Substance “3,7,12,17-tetramethyl-porphyrin-2(18)-N9epsilon-(Ace-Asp1-Glu2-Gln3-Gln4-Leu5-His6-Ser7-Gln8-Lys9-Arg10-Lys11-Ile12-Thr13-Leu14-NH2)-18(2)-N9epsilon-(Ace-Asp1-Leu2-Gln3-Gln4-Leu5-Ser6-Ser7-Gln8-Lys9-Arg10-NH2)-di-propionamide” has a conjugation yield [1] of 30% yield.
With “3,7,12,17-tetramethyl-porphyrin-2(18)-N9epsilon-(Ace-Asp1-Leu2-Gln3-Gln4-Leu5-His6-Ser7-Gln8-Lys9-Arg10-Lys11-Ile12-Thr13-Leu14-NH2)-18(2)-N9epsilon-(Ace-Asp1-Glu2-Gln3-Gln4-Leu5-Ser6-Ser7-Gln8-Lys9-Arg10-NH2)-di-propionamide” the conjugation yield [1] was 27% yield.
For “Fe3+ complex of the product 3,7,12,17-tetramethyl-porphyrin-2 (18)-N9epsilon-(Ace-Asp1-Glu2-Gln3-Gln4-Leu5-His6-Ser7-Gln8-Lys9-Arg10-Lys11-Ile12-Thr13-Leu14-NH2)-18(2)-N9epsilon-(Ace-Asp1-Glu2-Gln3-Gln4-Leu5-Ser6-Ser7-Gln8-Lys9-Arg10-NH2)”, the conjugation yield (peptide synthesis; conjugation step) was 25% yield and the step yield (peptide synthesis; late stage modification step) was “yield 54%”.
